PubChem BioAssay AID1259254, NCATS | 2017

Assay: 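Genome-wide screen for genes that prevent DNA re-replication in cancer cells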 (primary screen)
System: human HCT116 colorectal cancer cells
Knock-down reagent: single siRNA against human genes
Duration: 3 days
Measurement: 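Imaged Hoechst DNA stain sorts each cell into a cycle phase by DNA amount; per plate, G2 fraction set to 0% for non-targeting and 100% for GMNN siRNA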
Scale: G2 robust z-score: higher = more G2 cells, more excess DNA replication
Call rule: 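An siRNA counts as active if its G2 robust z-score lies at least 5 MADs above the screen median; here such calls match roughly 38% of GMNN control or more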
Here is one part, drawn at random, of about 59,000 reagents. Over the whole deposit, about 1,550 (2.6%) were called active. 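G2 share is only a proxy for re-replication; each gene was hit by three separate siRNAs, and active genes were retested.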 Reagents against one gene are numbered here. Further read-outs or replicates are left out here. Not given: the amount of reagent.

G2 robust z-score, by target gene and reagent
IL13 (GeneID 3596): #1 1.47 inactive; #2 3.39 inactive; #3 -0.227 inactive
PLN (GeneID 5350): #1 -0.0376 inactive; #2 1.14 inactive; #3 -0.808 inactive
LOC391322 (GeneID 391322): #1 -0.631 inactive; #2 -0.527 inactive; #3 -0.904 inactive
STOML1 (GeneID 9399): #1 -0.688 inactive; #2 -0.231 inactive; #3 -0.881 inactive
C14orf93 (GeneID 60686): #1 1.11 inactive; #2 0.276 inactive; #3 0.195 inactive

3 entries from above, arranged by “G2 robust z-score”, ascending.
target gene	siRNA no.	G2 robust z-score	Call
PLN (GeneID 5350)	3	-0.808	inactive
LOC391322 (GeneID 391322)	1	-0.631	inactive
LOC391322 (GeneID 391322)	2	-0.527	inactive

The list goes on.
G2 robust z-score, by target gene and reagent
ERAS (GeneID 3266): #1 -0.482 inactive; #2 -0.814 inactive; #3 -0.706 inactive
DAND5 (GeneID 199699): #1 1.61 inactive; #2 -0.728 inactive; #3 1.58 inactive
SNCA (GeneID 6622): #1 -0.724 inactive; #2 0.539 inactive; #3 0.408 inactive
KLRF1 (GeneID 51348): #1 0.985 inactive; #2 0.884 inactive; #3 0.254 inactive
DPP6 (GeneID 1804): #1 0.676 inactive; #2 -0.609 inactive; #3 6.44 active; #4 -0.0953 inactive; #5 2.95 inactive; #6 -0.48 inactive
